Laboratory results: PubChem BioAssay AID1259425 (University of Nebraska Medical Center, 2018)
Here is an unselected part of about 14,000 reagents tested. The numbers tell different reagents against one gene apart. No sequences are given here. Not stated in the record: the time to read-out.

Test: 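Find knockdowns that reproduce the gene expression pattern seen when KSR1 is lost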 (primary screen)
System: HCT116 human colon cancer cells
Knock-down reagent: siRNA pool against human genes, 50 nM siRNA
Read-out: 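After 50 nM siRNA pool, branched-DNA assay measures six marker transcripts per well, minus blank, normalised to the geometric mean of two housekeeping transcripts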
Direction: BNIP3L mRNA: higher = more BNIP3L transcript after knockdown; NDRG1 mRNA: higher = more NDRG1 transcript after knockdown; BNIP3 mRNA: higher = more BNIP3 transcript after knockdown; ALDOC mRNA: higher = more ALDOC transcript after knockdown; ACSL5 mRNA: higher = more ACSL5 transcript after knockdown

| gene symbol | reagent | BNIP3L mRNA, set 1 | NDRG1 mRNA, set 1 | BNIP3 mRNA, set 1 | ALDOC mRNA, set 1 | ACSL5 mRNA, set 1 |
| --- | --- | --- | --- | --- | --- | --- |
| UBTD1 (ubiquitin domain containing 1) | 1 | 0.28 | 0.457 | 0.882 | 0.0762 | 0.324 |
| TAAR2 (trace amine associated receptor 2) | 1 | 0.144 | 0.0972 | 0.399 | 0.0315 | 0.226 |
| F5 (coagulation factor V) | 1 | 0.075 | 0.106 | 0.395 | 0.0143 | 0.3 |
| MTCH1 | 1 | 0.181 | 0.0889 | 0.286 | 0.0105 | 0.232 |
| CNNM4 | 1 | 0.103 | 0.151 | 0.296 | 0.0367 | 0.129 |
| PBXIP1 (PBX homeobox interacting protein 1) | 1 | 0.164 | 0.369 | 0.454 | 0.021 | 0.155 |
| ADAM29 (ADAM metallopeptidase domain 29) | 1 | 0.1 | 0.0704 | 0.547 | 0.0472 | 0.172 |
| OBSCN | 1 | 0.141 | 0.334 | 0.296 | 0.0412 | 0.373 |
| OBSCN | 2 | 0.218 | 0.145 | 0.373 | 0.0636 | 0.337 |
| OBSCN | 3 | 0.0535 | 0.101 | 0.377 | 0.00826 | 0.154 |
| LAMP3 (lysosome associated membrane protein 3) | 1 | 0.107 | 0.136 | 0.296 | 0.0141 | 0.264 |
| ZNF492 (zinc finger protein 492) | 1 | 0.178 | 0.066 | 0.375 | 0.0279 | 0.128 |
| ASPH (aspartate beta-hydroxylase) | 1 | 0.0758 | 0.26 | 0.31 | 0.0255 | 0.166 |
| GJB4 (gap junction protein beta 4) | 1 | 0.228 | 0.135 | 0.296 | 0.0444 | 0.119 |
| MCTP2 (multiple C2 and transmembrane domain containing 2) | 1 | 0.0908 | 0.259 | 0.337 | 0.0399 | 0.298 |
| SEMA5B (semaphorin 5B) | 1 | 0.118 | 0.246 | 0.308 | 0.0738 | 0.158 |
| GJC1 (gap junction protein gamma 1) | 1 | 0.0943 | 0.0877 | 0.276 | 0.035 | 0.0489 |
| IRAG2 (inositol 1,4,5-triphosphate receptor associated 2) | 1 | 0.0981 | 0.261 | 0.33 | 0.0309 | 0.23 |
| KNL1 (kinetochore scaffold 1) | 1 | 0.097 | 0.746 | 0.476 | 0.0634 | 0.233 |
| THRAP3 (thyroid hormone receptor associated protein 3) | 1 | 0.0981 | 0.144 | 0.352 | 0.0213 | 0.208 |
| WAC (WW domain containing adaptor with coiled-coil) | 1 | 0.827 | 2.97 | 3.58 | 0.525 | 0.134 |
| C21orf58 (chromosome 21 open reading frame 58) | 1 | 0.0719 | 0.218 | 0.301 | 0.0226 | 0.174 |
| MTRF1L (mitochondrial translation release factor 1 like) | 1 | 0.0934 | 0.169 | 0.235 | 0.0228 | 0.181 |
| GUCA1C (guanylate cyclase activator 1C) | 1 | 0.11 | 0.368 | 0.208 | 0.0223 | 0.109 |
| OLR1 (oxidized low density lipoprotein receptor 1) | 1 | 0.0644 | 0.0808 | 0.241 | 0.0239 | 0.089 |
| SPIC (Spi-C transcription factor) | 1 | 0.202 | 0.132 | 0.306 | 0.0235 | 0.162 |
| MARVELD1 (MARVEL domain containing 1) | 1 | 0.258 | 0.323 | 0.313 | 0.0879 | 0.374 |
| UBE3B (ubiquitin protein ligase E3B) | 1 | 0.0827 | 0.13 | 0.294 | 0.0349 | 0.144 |
| OAZ3 (ornithine decarboxylase antizyme 3) | 1 | 0.118 | 0.33 | 0.274 | 0.0313 | 0.139 |
| S100B (S100 calcium binding protein B) | 1 | 0.0932 | 0.0961 | 0.226 | 0.00704 | 0.204 |
| UTP3 (UTP3 small subunit processome component) | 1 | 0.404 | 0.679 | 0.933 | 0.16 | 0.562 |
| CAPN2 (calpain 2) | 1 | 0.0633 | 0.268 | 0.164 | 0.0571 | 0.204 |
| FKBP11 (FKBP prolyl isomerase 11) | 1 | 0.138 | 0.16 | 0.293 | 0.0332 | 0.143 |
| SLC4A1AP | 1 | 0.126 | 0.21 | 0.301 | 0.039 | 0.181 |

Part of the list above, reduced to “BNIP3 mRNA, set 1”.
UBTD1 (ubiquitin domain containing 1) = 0.882
TAAR2 (trace amine associated receptor 2) = 0.399
F5 (coagulation factor V) = 0.395
MTCH1 = 0.286
